Experimental data published in article PMC8447793.
Results are given in words; binding and its absence hold for the method and conditions named. Binding seen in cells or lysates may run through a third protein. A result given as binding can be weak or reduced; the word gives no strength.

Amino acid sequences for entries named in this document (tags omitted). A change or cut given only in a name is not applied to a line headed by its entry.
UniProt Q9BST9: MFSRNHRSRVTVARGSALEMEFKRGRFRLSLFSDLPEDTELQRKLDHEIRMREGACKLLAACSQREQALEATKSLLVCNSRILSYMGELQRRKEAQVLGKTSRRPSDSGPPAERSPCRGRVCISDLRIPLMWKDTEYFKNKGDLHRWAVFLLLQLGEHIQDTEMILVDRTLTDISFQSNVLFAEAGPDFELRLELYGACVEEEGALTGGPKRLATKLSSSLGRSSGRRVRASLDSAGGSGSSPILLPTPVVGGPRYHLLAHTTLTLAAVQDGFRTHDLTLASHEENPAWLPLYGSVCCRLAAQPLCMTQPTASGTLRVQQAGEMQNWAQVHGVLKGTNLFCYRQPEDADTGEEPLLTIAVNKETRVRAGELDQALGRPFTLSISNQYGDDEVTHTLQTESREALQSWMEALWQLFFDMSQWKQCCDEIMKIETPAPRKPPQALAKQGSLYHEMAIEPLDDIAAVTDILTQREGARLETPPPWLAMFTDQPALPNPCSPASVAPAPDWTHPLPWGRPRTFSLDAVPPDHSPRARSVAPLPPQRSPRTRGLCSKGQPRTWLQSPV
UniProt P61586: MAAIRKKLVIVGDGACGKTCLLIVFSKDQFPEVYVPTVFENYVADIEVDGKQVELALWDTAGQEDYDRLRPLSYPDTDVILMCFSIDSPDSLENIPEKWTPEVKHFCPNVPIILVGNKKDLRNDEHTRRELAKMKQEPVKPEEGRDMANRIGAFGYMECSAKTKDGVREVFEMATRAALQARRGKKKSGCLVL

Target: Rhotekin Rho-binding domain agarose beads (RhoA Assay Reagent) (UniProt Q9BST9)
Test: pull-down; Rhotekin RBD agarose beads (12 µl) mixed with 500 µg lysate of ST88-14 or STS-26T cells with or without doxycycline-induced DN R-Ras; bound RhoA detected by blot; only the target purified

With RhoA (from UniProt P61586 1-193) the binding was “binds”.
